Results reported in publication PMC11579460.

Sequences of proteins named here, by UniProt entry; tags and fusion partners are left off.
UniProt Q96LD4: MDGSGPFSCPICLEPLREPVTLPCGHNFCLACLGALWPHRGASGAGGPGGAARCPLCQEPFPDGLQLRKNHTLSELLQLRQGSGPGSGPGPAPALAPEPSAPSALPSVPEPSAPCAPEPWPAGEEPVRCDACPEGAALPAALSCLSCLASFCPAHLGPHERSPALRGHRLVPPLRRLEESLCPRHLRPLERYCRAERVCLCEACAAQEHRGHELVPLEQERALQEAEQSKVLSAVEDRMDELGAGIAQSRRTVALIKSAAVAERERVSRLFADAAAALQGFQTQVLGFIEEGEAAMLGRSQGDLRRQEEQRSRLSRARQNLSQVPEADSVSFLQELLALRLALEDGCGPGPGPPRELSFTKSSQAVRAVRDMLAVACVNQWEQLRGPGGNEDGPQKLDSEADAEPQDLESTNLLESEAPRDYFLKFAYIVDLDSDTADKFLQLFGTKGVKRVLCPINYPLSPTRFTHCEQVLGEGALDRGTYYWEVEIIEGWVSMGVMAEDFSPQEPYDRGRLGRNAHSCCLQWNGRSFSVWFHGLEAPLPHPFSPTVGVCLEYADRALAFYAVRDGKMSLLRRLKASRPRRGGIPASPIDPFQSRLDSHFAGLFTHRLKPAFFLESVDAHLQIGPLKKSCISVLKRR
UniProt Q96SW2: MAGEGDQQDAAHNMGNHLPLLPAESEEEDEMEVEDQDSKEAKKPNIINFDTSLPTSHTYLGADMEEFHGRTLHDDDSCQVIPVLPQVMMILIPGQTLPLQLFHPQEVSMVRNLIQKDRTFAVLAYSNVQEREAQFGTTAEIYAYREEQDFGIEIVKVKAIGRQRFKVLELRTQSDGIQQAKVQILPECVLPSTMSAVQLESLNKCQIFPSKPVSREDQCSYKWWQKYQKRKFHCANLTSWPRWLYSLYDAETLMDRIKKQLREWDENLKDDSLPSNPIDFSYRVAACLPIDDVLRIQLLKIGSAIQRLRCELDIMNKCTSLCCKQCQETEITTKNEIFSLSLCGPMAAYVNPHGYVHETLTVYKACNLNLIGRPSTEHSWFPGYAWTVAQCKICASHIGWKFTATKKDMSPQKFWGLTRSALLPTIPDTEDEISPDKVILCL

Molecular target: FLAG-TRIM47 (human) (UniProt Q96LD4)
Experiment: affinity purification with mass spectrometry; HEK293T transfected with FLAG-TRIM47 for 48 h; cell extracts immunoprecipitated with anti-FLAG antibody or control IgG; eluted proteins analysed by LC-MS

How did the binding turn out when “TP53 (endogenous, HEK293T) (from UniProt P04637 1-393)” was run?
Its binding is “binds”.

How did the binding turn out when “CRBN (endogenous, HEK293T) (from UniProt Q96SW2 1-442)” was run?
Its binding is “binds”.

Results are given in words; binding and its absence hold for the method and conditions named. In cells and extracts the contact can be indirect. Here binding means that the protein was enriched with, or labelled near, the bait; the list need not be complete.
